We go through 18 molecules from PubChem BioAssay AID252 (DTP/NCI, 2004).

The subject of the test is BDF1 mice, intracerebral L1210 leukemia, survival T/C. Put plainly: NCI In Vivo Anticancer Drug Screen. Data for tumor model L1210 Leukemia (intracerebral) in B6D2F1 (BDF1) mice. Conditions: higher T/C = longer survival. As for the experimental part: The antitumor activity of compounds was measured in mice bearing transplantable tumors. Survival or tumor size were measured and the results are expressed as the measurement made in the treated group (T) divided by the measurement made in the vehicle treated control group (C). The tumor model used in this assay is L1210 Leukemia (intracerebral) in B6D2F1 (BDF1) mice

The mark [1] stands for this setting: T/C endpoint: mean survival time, dose: 18.0 mg/kg/injection, schedule: Q01DX001 (ip), vehicle: other.
Where [2] appears, read: T/C endpoint: mean survival time, dose: 4.0 mg/kg/injection, schedule: Q01DX009 (ip), vehicle: saline.
The mark [3] stands for this setting: T/C endpoint: mean survival time, dose: 37.0 mg/kg/injection, schedule: Q01DX001 (ip), vehicle: other.
Setting [4] is: T/C endpoint: mean survival time, dose: 56.0 mg/kg/injection, schedule: Q01DX001 (ip), vehicle: other.

The structures appear in SMILES notation. The list shows only some results of the screen, not a fair sample: it is rich in T/C values a quarter to a half above the control, in often repeated tests (any T/C) and in doses without a T/C. Other doses and runs of a compound stand elsewhere. T/C gives the treated animals as a percentage of the vehicle group. Some doses have a count of surviving animals in place of a T/C: the source files T/C as zero there, which appears to mark a toxic dose or a test without result, not a measured value. Some doses without a T/C left all or most animals alive at the check, yet need not have been tolerated: the source hardly ever lists a survival T/C far under the control, and the zero likely stands for such cases as well. Survivors were counted at the toxicity check, usually on the fifth day, unless a day is given; later deaths do not show. Schedules are NCI's codes, taken here to give the interval after Q, in days (D) or hours (H), and the number of doses after X. Some doses were run more than once; the values are given in rising order. For survival time, the PubChem record calls one and a half times the control and up active, and a quarter to a half above the control has no call in these data; cut-offs in other NCI protocols can differ. Some T/C values are followed by the survivors on the day toxicity was checked, most often the fifth; without a count, all were alive then. Some schedule codes hold Z or #, which are not explained here.

For `Nc1nncs1`, the T/C is, setting by setting: (T/C endpoint: mean survival time, dose: 40.0 mg/kg/injection, schedule: Q01DX009 (ip), vehicle: saline) 131 % of control; (T/C endpoint: mean survival time, dose: 60.0 mg/kg/injection, schedule: Q01DX009 (ip), vehicle: saline) 139 % of control; (T/C endpoint: mean survival time, dose: 90.0 mg/kg/injection, schedule: Q01DX009 (ip), vehicle: saline) 132 % of control; (T/C endpoint: median survival time, dose: 128.0 mg/kg/injection, schedule: Q01DX005 (ip), vehicle: saline with Tween-80) 133 % of control; (T/C endpoint: median survival time, dose: 256.0 mg/kg/injection, schedule: Q01DX005 (ip), vehicle: saline with Tween-80) 138 % of control.
In the case of `O=NN(CCCl)C(=O)Nc1ccc(SCC(=O)O)cc1`, the survivor count (T/C endpoint: mean survival time, dose: 40.0 mg/kg/injection, schedule: Q01DX001 (ip), vehicle: carboxymethylcellulose (CMC)) is 10 of 10.
With `Nc1nc(=O)n(C2OC(CO)C(O)C2O)cc1F` (stereo not given), the T/C is 132 % of control [7 of 8 alive] (T/C endpoint: median survival time, dose: 4.0 mg/kg/injection, schedule: Q01DX009 (ip), vehicle: water); 135 % of control [7 of 8 alive] (T/C endpoint: median survival time, dose: 128.0 mg/kg/injection, schedule: Q01DX009 (ip), vehicle: saline); 129 % of control (T/C endpoint: median survival time, dose: 256.0 mg/kg/injection, schedule: Q01DX009 (ip), vehicle: saline).
As to `O=NN(CCF)C(=O)NC1CCC(NC(=O)N(CCF)N=O)CC1` (stereo not given), the T/C is, setting by setting: (T/C endpoint: mean survival time, dose: 20.0 mg/kg/injection, schedule: Q01DX001 (ip), vehicle: other) 137 % of control; (T/C endpoint: mean survival time, dose: 250.0 mg/kg/injection, schedule: Q01DX001 (ip), vehicle: other) 126 % of control [9 of 10 alive]. The survivor count (T/C endpoint: mean survival time, dose: 375.0 mg/kg/injection, schedule: Q01DX001 (ip), vehicle: other) is 3 of 10.
As for `O=NN(CCF)C(=O)NC1CSCSC1`, the T/C runs as follows: (T/C endpoint: mean survival time, dose: 15.0 mg/kg/injection, schedule: Q01DX001 (ip), vehicle: other) 144 % of control; under setting [1], 137 % of control. Under “T/C endpoint: mean survival time, dose: 61.5 mg/kg/injection, schedule: Q01DX001 (ip), vehicle: other”, the survivor count is 6 of 10.
Take `CN(C)N=Nc1ccc(C(N)=O)cc1`: the T/C runs as follows: (T/C endpoint: median survival time, dose: 80.0 mg/kg/injection, schedule: Q01DX009 (ip), vehicle: saline with Tween-80) 137 % of control; (T/C endpoint: median survival time, dose: 160.0 mg/kg/injection, schedule: Q01DX009 (ip), vehicle: saline with Tween-80) 145 % of control.
As to `O=C1C(NCC(O)CO)=C(N2CC2)C(=O)C(NCC(O)CO)=C1N1CC1` (stereo not given), the T/C (T/C endpoint: mean survival time, dose: 3.0 mg/kg/injection, schedule: Q01DX009 (ip), vehicle: saline) is 138 % of control; the T/C under setting [2] is 132 % of control; the T/C (T/C endpoint: mean survival time, dose: 6.0 mg/kg/injection, schedule: Q01DX009 (ip), vehicle: saline) is 130 % of control.
Consider `O=NN(CCCl)C(=O)Nc1ccc2c(c1)CCCC2`, for which the T/C (T/C endpoint: mean survival time, dose: 55.0 mg/kg/injection, schedule: Q01DX001 (ip), vehicle: carboxymethylcellulose (CMC)) was 127 and 128 % of control; the T/C (T/C endpoint: mean survival time, dose: 84.0 mg/kg/injection, schedule: Q01DX001 (ip), vehicle: carboxymethylcellulose (CMC)) was 142 and 145 % of control; the T/C (T/C endpoint: mean survival time, dose: 119.0 mg/kg/injection, schedule: Q01DX001 (ip), vehicle: carboxymethylcellulose (CMC)) is 142 % of control; the T/C (T/C endpoint: mean survival time, dose: 125.0 mg/kg/injection, schedule: Q01DX001 (ip), vehicle: carboxymethylcellulose (CMC)) was 144 % of control; the T/C (T/C endpoint: mean survival time, dose: 187.0 mg/kg/injection, schedule: Q01DX001 (ip), vehicle: carboxymethylcellulose (CMC)) is 141 % of control. Further, the survivor count by setting is: (T/C endpoint: mean survival time, dose: 357.0 mg/kg/injection, schedule: Q01DX001 (ip), vehicle: carboxymethylcellulose (CMC)) 1 of 10; (T/C endpoint: mean survival time, dose: 476.0 mg/kg/injection, schedule: Q01DX001 (ip), vehicle: carboxymethylcellulose (CMC)) 0 of 10.
Take `O=NN(CCCl)C(=O)NC1CCC(O)CC1` (stereo not given): the survivor count is on record as 9 of 10 (T/C endpoint: mean survival time, dose: 133.0 mg/kg/injection, schedule: Q01DX001 (ip), vehicle: saline) and 4 of 10 (T/C endpoint: mean survival time, dose: 200.0 mg/kg/injection, schedule: Q01DX001 (ip), vehicle: saline).
As to `CN(N=O)C(=O)Nc1ccc(F)cc1`, the survivor count by setting is: (T/C endpoint: mean survival time, dose: 300.0 mg/kg/injection, schedule: Q01DX001 (ip), vehicle: carboxymethylcellulose (CMC)) 0 of 10; (T/C endpoint: mean survival time, dose: 600.0 mg/kg/injection, schedule: Q01DX001 (ip), vehicle: carboxymethylcellulose (CMC)) 0 of 10; (T/C endpoint: mean survival time, dose: 1200.0 mg/kg/injection, schedule: Q01DX001 (ip), vehicle: carboxymethylcellulose (CMC)) 0 of 10.
With `O=NN(CCCl)C(=O)NC1CCSc2ccccc21` (stereo not given), under setting [1], the T/C was 131 and 147 % of control. The survivor count (T/C endpoint: mean survival time, dose: 200.0 mg/kg/injection, schedule: Q01DX001 (ip), vehicle: other) is 6 of 10.
Regarding `O=c1cnn(C2OC(CO)C(O)C2O)c(=O)[nH]1` (stereo not given), the T/C by setting is: (T/C endpoint: mean survival time, dose: 125.0 mg/kg/injection, schedule: Q01DX Z (ip), vehicle: saline) 143 % of control; (T/C endpoint: mean survival time, dose: 250.0 mg/kg/injection, schedule: Q01DX Z (ip), vehicle: saline) 146 % of control; (T/C endpoint: mean survival time, dose: 500.0 mg/kg/injection, schedule: Q01DX Z (ip), vehicle: saline) 148 % of control; (T/C endpoint: mean survival time, dose: 1000.0 mg/kg/injection, schedule: Q01DX Z (ip), vehicle: saline) 139 % of control.
In the case of `O=NN(CCCl)C(=O)NC1CS(=O)(=O)CS(=O)(=O)C1`, the T/C (T/C endpoint: mean survival time, dose: 25.0 mg/kg/injection, schedule: Q01DX001 (ip), vehicle: other) is 125 % of control and the T/C under setting [3] was 138 % of control.
Take `CCS(=O)(=O)Nc1cccc(Nc2c3cccc(C)c3nc3c(C)cccc23)c1OC`: the survivor count by setting is: (T/C endpoint: mean survival time, dose: 50.0 mg/kg/injection, schedule: Q01DX009 (ip), vehicle: water) 9 of 10; (T/C endpoint: mean survival time, dose: 100.0 mg/kg/injection, schedule: Q01DX009 (ip), vehicle: water) 7 of 10.
Consider `CN(N=O)C(=O)Nc1ccc(C(=O)O)cc1`, for which the survivor count is, setting by setting: (T/C endpoint: mean survival time, dose: 240.0 mg/kg/injection, schedule: Q01DX001 (ip), vehicle: carboxymethylcellulose (CMC)) 8 of 10; (T/C endpoint: mean survival time, dose: 480.0 mg/kg/injection, schedule: Q01DX001 (ip), vehicle: carboxymethylcellulose (CMC)) 0 of 10; (T/C endpoint: mean survival time, dose: 960.0 mg/kg/injection, schedule: Q01DX001 (ip), vehicle: carboxymethylcellulose (CMC)) 0 of 10.
With `O=NN(CCF)C(=O)NC1CC2CCC1C2` (stereo not given), the survivor count is 6 of 10 under setting [3]; 0 of 10 under setting [4]; 0 of 10 and 6 of 10 (T/C endpoint: mean survival time, dose: 84.0 mg/kg/injection, schedule: Q01DX001 (ip), vehicle: other); 0 of 10 and 5 of 10 (T/C endpoint: mean survival time, dose: 126.0 mg/kg/injection, schedule: Q01DX001 (ip), vehicle: other). The T/C under setting [4] is 287, 306 [9 of 10 alive], 320 % of control.
On to `CS(=O)(=O)Nc1ccc(Nc2c3ccccc3nc3cc(N)ccc23)cc1`, for which the survivor count is listed as 10 of 10 under setting [2]; 6 of 10 (T/C endpoint: mean survival time, dose: 8.0 mg/kg/injection, schedule: Q01DX009 (ip), vehicle: saline); 10 of 10 (T/C endpoint: mean survival time, dose: 8.0 mg/kg/injection, schedule: Q01DX009 (sc), vehicle: saline).
In the case of `O=C1N[C@@H]([C@H]2CC[C@H](Cl)CN2)C(=O)N[C@H]1[C@H]1CC[C@H](Cl)CN1`, the T/C (T/C endpoint: mean survival time, dose: 2.0 mg/kg/injection, schedule: Q01DX009 (ip), vehicle: saline) is 140 % of control. The survivor count (T/C endpoint: mean survival time, dose: 16.0 mg/kg/injection, schedule: Q01DX001 (ip), vehicle: saline) is reported as 3 of 10.
